This passage reports binding results from PMC11078644, “Nesprin-2 is a novel scaffold protein for telethonin and FHL-2 in the cardiomyocyte sarcomere” (The Journal of Biological Chemistry, 2024).

Results are given in words; binding and its absence hold for the method and conditions named. For some of these results: Binding seen in cells or lysates may run through a third protein. Some entries that bind do so weakly or less than the wild type. For some of these results: Tags and fused reporters may be left off the sequences shown.

The target of experiment [1] is T1, Nesprin-2 SR52-53 (amino acids 6136-6354 of the full length of nesprin-2 giant), yeast two-hybrid bait (human) (UniProt Q8WXH0).
T1 sequence: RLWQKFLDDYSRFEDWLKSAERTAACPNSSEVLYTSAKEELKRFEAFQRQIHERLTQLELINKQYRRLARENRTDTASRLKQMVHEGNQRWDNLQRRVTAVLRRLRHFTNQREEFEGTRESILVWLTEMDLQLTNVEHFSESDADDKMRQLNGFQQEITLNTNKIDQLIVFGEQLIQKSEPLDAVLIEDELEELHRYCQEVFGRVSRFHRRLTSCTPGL
Kind of experiment: two-hybrid; screen of a human cardiac muscle cDNA library (pACT2) with nesprin-2 SR52-53 and SR54-56 baits in yeast strain AH109; colony re-screening.

The target in experiment [2] is T2, GST-nesprin-2 SR51-53 T6211M (human) (UniProt Q8WXH0).
T2 sequence: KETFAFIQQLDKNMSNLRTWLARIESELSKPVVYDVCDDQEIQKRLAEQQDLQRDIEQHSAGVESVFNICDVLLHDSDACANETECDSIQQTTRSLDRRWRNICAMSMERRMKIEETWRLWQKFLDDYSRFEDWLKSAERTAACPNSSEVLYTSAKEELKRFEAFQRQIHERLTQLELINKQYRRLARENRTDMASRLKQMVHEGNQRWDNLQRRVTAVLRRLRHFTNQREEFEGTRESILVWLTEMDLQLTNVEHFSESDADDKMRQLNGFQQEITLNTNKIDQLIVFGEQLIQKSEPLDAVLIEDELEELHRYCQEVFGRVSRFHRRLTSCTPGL
Kind of experiment: pull-down; GST-nesprin-2 beads incubated with GFP-tagged FHL-2 proteins; Western blot.

For experiment [3], the target named is T3, GST nesprin-2 CT (SR51-56, amino acids 6018-6781, without KASH) (human) (UniProt Q8WXH0).
T3 sequence: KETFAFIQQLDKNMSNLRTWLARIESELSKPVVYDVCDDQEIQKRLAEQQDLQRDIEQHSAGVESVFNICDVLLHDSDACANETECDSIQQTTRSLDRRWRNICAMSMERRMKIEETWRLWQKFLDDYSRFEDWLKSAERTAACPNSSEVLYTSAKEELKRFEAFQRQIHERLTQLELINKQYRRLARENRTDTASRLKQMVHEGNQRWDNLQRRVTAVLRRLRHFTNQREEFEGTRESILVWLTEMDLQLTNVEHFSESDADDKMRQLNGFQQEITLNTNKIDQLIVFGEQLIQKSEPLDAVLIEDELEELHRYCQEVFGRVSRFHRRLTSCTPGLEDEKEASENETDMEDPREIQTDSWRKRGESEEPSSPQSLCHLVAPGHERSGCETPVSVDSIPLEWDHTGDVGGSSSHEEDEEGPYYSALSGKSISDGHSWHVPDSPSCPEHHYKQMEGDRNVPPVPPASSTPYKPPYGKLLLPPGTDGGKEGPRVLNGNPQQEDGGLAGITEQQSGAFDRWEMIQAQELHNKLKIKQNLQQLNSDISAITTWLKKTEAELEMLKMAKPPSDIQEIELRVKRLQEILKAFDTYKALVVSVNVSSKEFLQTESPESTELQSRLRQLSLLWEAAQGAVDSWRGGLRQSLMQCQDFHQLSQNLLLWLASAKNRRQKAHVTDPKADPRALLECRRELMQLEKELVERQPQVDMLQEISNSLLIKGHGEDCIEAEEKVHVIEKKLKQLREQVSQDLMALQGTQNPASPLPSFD
The description is as above.

Experiment [4] has as its target T4, GST-nesprin-2 SR51-53 (amino acids 6018-6354) (human) (UniProt Q8WXH0).
T4 sequence: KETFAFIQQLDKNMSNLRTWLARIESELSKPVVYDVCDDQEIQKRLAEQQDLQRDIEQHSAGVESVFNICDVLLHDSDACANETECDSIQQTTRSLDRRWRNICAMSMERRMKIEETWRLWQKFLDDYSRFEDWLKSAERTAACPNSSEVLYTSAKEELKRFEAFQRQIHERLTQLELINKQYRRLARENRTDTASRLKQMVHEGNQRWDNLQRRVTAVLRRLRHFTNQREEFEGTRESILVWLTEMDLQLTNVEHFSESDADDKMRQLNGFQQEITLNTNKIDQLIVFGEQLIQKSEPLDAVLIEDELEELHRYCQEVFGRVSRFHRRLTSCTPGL
The description is as above.

Experiment [5] deals with T4, GST-nesprin-2 SR51-53 (amino acids 6018-6354) (human). The experiment in a line: pull-down; GST-nesprin-2 on glutathione-Sepharose 4B beads; 1 ug purified HA- or His-telethonin recombinant protein (with or without PKD pre-treatment) with 50 ul beads, 2 h, 4 °C; Western blot; both purified.
Experiment [6] deals with T2, GST-nesprin-2 SR51-53 T6211M (human). The experiment is described as above.
Experiment [7] has as its target T5, His-tagged full-length telethonin (recombinant, WT) (UniProt O15273).
T5 sequence: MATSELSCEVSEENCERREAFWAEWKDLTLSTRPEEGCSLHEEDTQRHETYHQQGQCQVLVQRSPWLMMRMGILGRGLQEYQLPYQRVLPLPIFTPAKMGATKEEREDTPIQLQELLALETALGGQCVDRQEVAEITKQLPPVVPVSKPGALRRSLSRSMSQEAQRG
Kind of experiment: native gel or EMSA; Native Page Novex gel; the two His-tagged proteins purified separately, mixed at increasing molar ratios of nesprin:telethonin in PBS with 0.3% Sarcosyl, 20 min, room temperature; blot with telethonin antibody; both purified. Background: In EMSA bound probe runs differently from free probe, usually more slowly.

B1: FHL-2 amino acids 85 to 279, clones from a human cardiac muscle cDNA library (yeast two-hybrid prey) (domain or fragment, UniProt Q14192 85-279)
chain: DQLLCTDCYSNEYSSKCQECKKTIMPGTRKMEYKGSSWHETCFICHRCQQPIGTKSFIPKDNQNFCVPCYEKQHAMQCVQCKKPITTGGVTYREQPWHKECFVCTACRKQLSGQRFTARDDFAYCLNCFCDLYAKKCAGCTNPISGLGGTKYISFEERQWHNDCFNCKKCSLSLVGRGFLTERDDILCPDCGKDI
In the case of B1, the binding entry in experiment [1] was “binds”.

B2: GFP-tagged FHL-2 WT (protein, UniProt Q14192 1-279)
chain: MTERFDCHHCNESLFGKKYILREESPYCVVCFETLFANTCEECGKPIGCDCKDLSYKDRHWHEACFHCSQCRNSLVDKPFAAKEDQLLCTDCYSNEYSSKCQECKKTIMPGTRKMEYKGSSWHETCFICHRCQQPIGTKSFIPKDNQNFCVPCYEKQHAMQCVQCKKPITTGGVTYREQPWHKECFVCTACRKQLSGQRFTARDDFAYCLNCFCDLYAKKCAGCTNPISGLGGTKYISFEERQWHNDCFNCKKCSLSLVGRGFLTERDDILCPDCGKDI
Turning to B2, the binding result in experiment [2], in experiment [3] and in experiment [4] was “binds” throughout.

B3: GFP-FHL-2 R113C mutant (protein, UniProt Q14192 1-279)
chain: MTERFDCHHCNESLFGKKYILREESPYCVVCFETLFANTCEECGKPIGCDCKDLSYKDRHWHEACFHCSQCRNSLVDKPFAAKEDQLLCTDCYSNEYSSKCQECKKTIMPGTCKMEYKGSSWHETCFICHRCQQPIGTKSFIPKDNQNFCVPCYEKQHAMQCVQCKKPITTGGVTYREQPWHKECFVCTACRKQLSGQRFTARDDFAYCLNCFCDLYAKKCAGCTNPISGLGGTKYISFEERQWHNDCFNCKKCSLSLVGRGFLTERDDILCPDCGKDI
As for B3, the binding entry in experiment [4] was “binds”.

B4: telethonin, full-length clones from a human cardiac muscle cDNA library (yeast two-hybrid prey) (protein, UniProt O15273 1-167)
chain: MATSELSCEVSEENCERREAFWAEWKDLTLSTRPEEGCSLHEEDTQRHETYHQQGQCQVLVQRSPWLMMRMGILGRGLQEYQLPYQRVLPLPIFTPAKMGATKEEREDTPIQLQELLALETALGGQCVDRQEVAEITKQLPPVVPVSKPGALRRSLSRSMSQEAQRG
Turning to B4, in experiment [1], the binding entry was “binds”.

B5: HA-tagged telethonin S157A/S161A double mutant, purified recombinant protein (protein, UniProt O15273 1-167)
chain: MATSELSCEVSEENCERREAFWAEWKDLTLSTRPEEGCSLHEEDTQRHETYHQQGQCQVLVQRSPWLMMRMGILGRGLQEYQLPYQRVLPLPIFTPAKMGATKEEREDTPIQLQELLALETALGGQCVDRQEVAEITKQLPPVVPVSKPGALRRSLARSMAQEAQRG
With B5, the binding entry in experiment [5] was “binds”.

B6: HA-tagged telethonin S157A, purified recombinant protein, without PKD pre-treatment (protein, UniProt O15273 1-167)
chain: MATSELSCEVSEENCERREAFWAEWKDLTLSTRPEEGCSLHEEDTQRHETYHQQGQCQVLVQRSPWLMMRMGILGRGLQEYQLPYQRVLPLPIFTPAKMGATKEEREDTPIQLQELLALETALGGQCVDRQEVAEITKQLPPVVPVSKPGALRRSLARSMSQEAQRG
Consider B6, for which the binding entry in experiment [5] was “binds”.

B7: HA-tagged telethonin S161A, purified recombinant protein, without PKD pre-treatment (protein, UniProt O15273 1-167)
chain: MATSELSCEVSEENCERREAFWAEWKDLTLSTRPEEGCSLHEEDTQRHETYHQQGQCQVLVQRSPWLMMRMGILGRGLQEYQLPYQRVLPLPIFTPAKMGATKEEREDTPIQLQELLALETALGGQCVDRQEVAEITKQLPPVVPVSKPGALRRSLSRSMAQEAQRG
On to B7, for which, in experiment [5], the binding result is “binds”.

B8: His-tagged telethonin R153H, without PKD pre-treatment (protein, UniProt O15273 1-167)
chain: MATSELSCEVSEENCERREAFWAEWKDLTLSTRPEEGCSLHEEDTQRHETYHQQGQCQVLVQRSPWLMMRMGILGRGLQEYQLPYQRVLPLPIFTPAKMGATKEEREDTPIQLQELLALETALGGQCVDRQEVAEITKQLPPVVPVSKPGALHRSLSRSMSQEAQRG
For the molecule B8, the binding entry in experiment [5] is “binds”.

B9: HA-tagged telethonin S157A, pre-treated with PKD (protein, UniProt O15273 1-167)
chain: MATSELSCEVSEENCERREAFWAEWKDLTLSTRPEEGCSLHEEDTQRHETYHQQGQCQVLVQRSPWLMMRMGILGRGLQEYQLPYQRVLPLPIFTPAKMGATKEEREDTPIQLQELLALETALGGQCVDRQEVAEITKQLPPVVPVSKPGALRRSLARSMSQEAQRG
modifications: phosphorylated by PKD in vitro (Ser-161 left as site)
As for B9, the binding result in experiment [5] is given as “binds weakly”.

B10: HA-tagged telethonin WT, purified recombinant protein, without PKD pre-treatment (protein, UniProt O15273 1-167)
chain: MATSELSCEVSEENCERREAFWAEWKDLTLSTRPEEGCSLHEEDTQRHETYHQQGQCQVLVQRSPWLMMRMGILGRGLQEYQLPYQRVLPLPIFTPAKMGATKEEREDTPIQLQELLALETALGGQCVDRQEVAEITKQLPPVVPVSKPGALRRSLSRSMSQEAQRG
For B10, in experiment [5], the binding result is on record as “binds”.

B11: HA-tagged telethonin S161A, pre-treated with PKD (protein, UniProt O15273 1-167)
chain: MATSELSCEVSEENCERREAFWAEWKDLTLSTRPEEGCSLHEEDTQRHETYHQQGQCQVLVQRSPWLMMRMGILGRGLQEYQLPYQRVLPLPIFTPAKMGATKEEREDTPIQLQELLALETALGGQCVDRQEVAEITKQLPPVVPVSKPGALRRSLSRSMAQEAQRG
modifications: phosphorylated by PKD in vitro (Ser-157 left as site)
For B11, the binding entry in experiment [5] is on record as “binds weakly”.

B12: His-tagged full-length telethonin (recombinant, WT) (protein, UniProt O15273 1-167)
chain: MATSELSCEVSEENCERREAFWAEWKDLTLSTRPEEGCSLHEEDTQRHETYHQQGQCQVLVQRSPWLMMRMGILGRGLQEYQLPYQRVLPLPIFTPAKMGATKEEREDTPIQLQELLALETALGGQCVDRQEVAEITKQLPPVVPVSKPGALRRSLSRSMSQEAQRG
Consider B12, for which the binding result in experiment [6] and in experiment [5] was “binds” in each case.

B13: nesprin-2 SR51-53 (no tag), co-expressed with His-telethonin (domain or fragment, human, UniProt Q8WXH0 6018-6354, looked up)
chain: KETFAFIQQLDKNMSNLRTWLARIESELSKPVVYDVCDDQEIQKRLAEQQDLQRDIEQHSAGVESVFNICDVLLHDSDACANETECDSIQQTTRSLDRRWRNICAMSMERRMKIEETWRLWQKFLDDYSRFEDWLKSAERTAACPNSSEVLYTSAKEELKRFEAFQRQIHERLTQLELINKQYRRLARENRTDTASRLKQMVHEGNQRWDNLQRRVTAVLRRLRHFTNQREEFEGTRESILVWLTEMDLQLTNVEHFSESDADDKMRQLNGFQQEITLNTNKIDQLIVFGEQLIQKSEPLDAVLIEDELEELHRYCQEVFGRVSRFHRRLTSCTPGL
notes: nesprin-2 giant, human, spectrin repeats 51-53, amino acids 6018-6354 of the full length of nesprin-2 giant; in CDF DUET-1 without a tag; printed mass 40.51 kDa; source: E. coli BL21(DE3)pLysS, co-expressed with His-telethonin, co-purified (His-trap, SEC)
Consider B13, for which the binding result in experiment [7] was “binds”.
